Results deposited as PubChem BioAssay AID504784 (Drosophila RNAi Screening Center, 2011)
Aim: 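Fly genes whose silencing alters how much lipid cells keep in droplets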 (primary screen). Cell system: Drosophila Kc167 embryonic cells. Reagent: long dsRNA against Drosophila genes, about 250 ng dsRNA per well. Time to read-out: 4 days. Conditions: cells fed 400 µM oleic acid bound to BSA. Detection: 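Microscope images give a droplet-to-nucleus area ratio, taken as log and converted to a screen-wide B-score; higher values mean greater lipid storage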. Reading the numbers: droplet/nuclear area B-score: higher = more stored lipid (overstorage).
In all, the deposit lists about 17,000 reagents; shown is a random part of those with a known target gene and a result. 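Each column is one replicate's B-score; the combined score over replicates was not deposited, so single values may mislead.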 The numbers tell different reagents against one gene apart. Reagent sequences are not shown.

target gene | reagent | droplet/nuclear area B-score, replicate 1 | droplet/nuclear area B-score, replicate 2 | droplet/nuclear area B-score, replicate 3
CG10581 | 1 | -0.588 | 0.988 | –
CG11262 | 1 | 0.644 | 1.64 | –
mthl13 (methuselah-like 13) | 1 | 0.328 | 0.526 | –
CG1983 | 1 | -0.54 | -0.682 | –
CecA1 (Cecropin A1) | 1 | 0.273 | – | –
CG13984 | 1 | -0.076 | 3.62 | –
CG13185 | 1 | -0.663 | -0.4 | –
eIF2Bbeta (eukaryotic translation initiation factor 2B subunit beta) | 1 | 1.24 | -0.179 | –
cN-IIIB (cytosolic 5'-nucleotidase IIIB) | 1 | 0.606 | 0.461 | –
CG10486 | 1 | 1.32 | 1.67 | –
CG5676 | 1 | -0.447 | 0.00204 | –
l(2)gl (lethal (2) giant larvae) | 1 | -0.872 | 0.197 | –
Paris (Parkin Interacting Substrate) | 1 | 0.616 | -0.0442 | –
CG18557 | 1 | -0.664 | -0.674 | –
pyd (polychaetoid) | 1 | 2.06 | -0.475 | –
pyd (polychaetoid) | 2 | -2.02 | 0.328 | –
pyd (polychaetoid) | 3 | -0.428 | -1.38 | –
pyd (polychaetoid) | 4 | 0.0564 | 0.702 | –
pyd (polychaetoid) | 5 | -1.85 | -0.606 | –
pyd (polychaetoid) | 6 | 3.29 | -0.649 | –
pyd (polychaetoid) | 7 | -2 | -0.0369 | –
pyd (polychaetoid) | 8 | -2.3 | 1.1 | –
pyd (polychaetoid) | 9 | 0.58 | 0.459 | –
CG9896 | 1 | 2.27 | -0.8 | –
CG9896 | 2 | 0.47 | -0.185 | –
MCPH1 (Microcephalin) | 1 | 1.11 | 0.0127 | –
MCPH1 (Microcephalin) | 2 | 0.0315 | 2.8 | –
MCPH1 (Microcephalin) | 3 | -1 | 0.791 | –
cmet (CENP-meta) | 1 | -2.06 | 0.000552 | –
CG13040 | 1 | 1.19 | 2.44 | –
CG15200 | 1 | -0.158 | -0.71 | 0.324
ND-B22 (NADH dehydrogenase (ubiquinone) B22 subunit) | 1 | -1.19 | -0.0672 | –
st (scarlet) | 1 | -0.98 | 1.88 | 1.09
rut (rutabaga) | 1 | -0.21 | -0.633 | –
rut (rutabaga) | 2 | -2.13 | – | –
Prim1 (DNA primase subunit 1) | 1 | 1.79 | 0.053 | –
stai (stathmin) | 1 | 0.178 | -1.97 | –
Cals (Calsyntenin) | 1 | -1.24 | -0.00339 | –
Cals (Calsyntenin) | 2 | 0.679 | -0.0138 | –
Lst8 | 1 | -0.021 | -0.0799 | 0.432
CG11563 | 1 | 1.03 | -0.801 | –
Cyt-b5 (Cytochrome b5) | 1 | -0.0768 | -1.05 | –
Hmu (Hemomucin) | 1 | 1.04 | 0.635 | –
E(spl)m6-BFM (Enhancer of split m6, Bearded family member) | 1 | -0.152 | -0.961 | –
mRpS9 (mitochondrial ribosomal protein S9) | 1 | 0.833 | 0.868 | –
mRpS9 (mitochondrial ribosomal protein S9) | 2 | 2.98 | 2.05 | 0.927
CG5177 | 1 | -0.458 | -0.0314 | –
sNPF (short neuropeptide F precursor) | 1 | 0.805 | 0.442 | –
nAChRbeta3 (nicotinic Acetylcholine Receptor beta3) | 1 | 1.76 | – | –
CG14540 | 1 | 0.18 | 0.155 | –
U4-U6-60K (U4-U6 small nuclear riboprotein factor 60K) | 1 | -1.91 | 0.0871 | -0.322
CG12605 | 1 | 0.14 | 0.402 | –
Uba2 (Ubiquitin-like activating enzyme 2) | 1 | 0.62 | 1.1 | –
CG6923 | 1 | -0.839 | -6.52 | –
CG11601 | 1 | -0.86 | -1.43 | –
Jon25Bi (Jonah 25Bi) | 1 | -2.63 | 0.83 | –
